{"source": "patent US10908141B2", "about": "“Methods and kits for detecting non-luminescent or weakly luminescent metals” (New York University, priority 2012, dated 2021)", "assay": "In vitro time-resolved fluorescent detection of sensitized Gd chelate with DTPA-Tb", "conditions": "collision model fit, ±s.e.", "data": [{"substance": "carbostyril-124-diethylenetriaminepentaacetic acid-Gadolinium [cs124-DTPA-Gd]", "values": [{"measurement": "Probability of electron transfer upon collision", "value": "0.82±0.005694"}]}]}
